According to US20180030500A1, “ENRICHMENT AND SELECTIVE CULTURE OF MYCOBACTERIA” (priority 2015, published 2018):
At least one structure is not confirmed: it was looked up by name or label, or the drawing left a doubt.

Tests used:
Experiment in all cases: Sensitivity to C-390 in medium W
Assay type in all cases: cell-based
[1] = test system: Burkholderia cenocepacia (LMG 18832)
Protocol: (§1) An evaluation of the sensitivity to C-390 of various microorganisms capable of infecting the airways was carried out. This evaluation was carried out using medium W of example 4, containing a variable concentration of C-390. Table 10 below collates the observations collected with regard to the intensity of growth of the strains tested as a function of the C-390 concentration of the medium. The abbreviations NG (“no growth”) and Tr (“traces”) signify that no growth was observed or only a few not very significant traces.

[2] = test system: Burkholderia cepacia (LMG 1222)
Protocol: as §1

[3] = test system: Burkholderia gladioli (ENV)
Protocol: as §1

[4] = test system: Burkholderia multivorans (645914C); conditions: C-390 0.5 mg/l in medium W
Protocol: as §1

[5] = test system: Burkholderia stabilis (LMG18870); conditions: C-390 0.5 mg/l in medium W
Protocol: as §1

[6] = test system: Burkholderia pyrrocinia (LMG 21824); parameters: key to the marks not given beside the values
Protocol: as §1

Measured: intensity of growth

CCN(CC)c1ccc(C2(Cl)c3ccccc3N(c3ccccc3)c3ccccc32)cc1 [Medium C-390, 9-chloro-9-(4′-diethylamino)phenyl-9,10-dihydro-10-phenylacridine]
++: [1]; C-390 0.5 mg/l in medium W | [1]; C-390 1 mg/l in medium W | [1]; C-390 2 mg/l in medium W | [3]; C-390 1 mg/l in medium W | [3]; C-390 2 mg/l in medium W | [3]; C-390 4 mg/l in medium W | [6]; C-390 0.5 mg/l in medium W | [6]; C-390 1 mg/l in medium W | [6]; C-390 2 mg/l in medium W
+: [1]; C-390 4 mg/l in medium W | [2]; C-390 0.5 mg/l in medium W | [2]; C-390 1 mg/l in medium W | [3]; C-390 0.5 mg/l in medium W | [3]; C-390 8 mg/l in medium W | [4] | [5]
